PubChem BioAssay AID1259254 – NCATS – 2017

- Aim: 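Genome-wide screen for genes that prevent DNA re-replication in cancer cells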 (primary screen)
- Cells: human HCT116 colorectal cancer cells
- Reagents: single siRNA against human genes
- Duration: 3 days
- Measured: 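Imaged Hoechst DNA stain sorts each cell into a cycle phase by DNA amount; per plate, G2 fraction set to 0% for non-targeting and 100% for GMNN siRNA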
- Scale: G2 robust z-score and G2 cells, % of GMNN control: higher = more G2 cells, more excess DNA replication; raw share of cells in G2: higher = larger share of cells with G2 DNA content
- Rule for the call: 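An siRNA counts as active if its G2 robust z-score lies at least 5 MADs above the screen median; here such calls match roughly 38% of GMNN control or more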
The whole screen tested about 59,000 reagents; shown is a part drawn at random. Over the whole deposit, about 1,550 (2.6%) got an active call. 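G2 share is only a proxy for re-replication; each gene was hit by three separate siRNAs, and active genes were retested.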 Raw values vary from plate to plate and are shown uncorrected. Reagents against one gene are numbered here. Reagent sequences are not shown. The record does not give: the amount of reagent.

| Gene | reagent no. | G2 robust z-score | G2 cells, % of GMNN control | raw share of cells in G2 (%) | Call |
| --- | --- | --- | --- | --- | --- |
| CAPZA1 (GeneID 829) | 1 | 0.349 | 5.42 | 6.01 | inactive |
| CAPZA1 (GeneID 829) | 2 | 0.992 | 9.95 | 8.11 | inactive |
| CAPZA1 (GeneID 829) | 3 | -0.21 | 1.49 | 5.6 | inactive |
| MEI1 (GeneID 150365) | 1 | 1.03 | 10.2 | 7.26 | inactive |
| MEI1 (GeneID 150365) | 2 | 0.479 | 6.34 | 4.87 | inactive |
| MEI1 (GeneID 150365) | 3 | 0.58 | 7.05 | 5.53 | inactive |
| HMGCS1 (GeneID 3157) | 1 | -0.228 | 1.37 | 6.2 | inactive |
| HMGCS1 (GeneID 3157) | 2 | -0.722 | -2.11 | 3.43 | inactive |
| HMGCS1 (GeneID 3157) | 3 | 1.56 | 13.9 | 10.1 | inactive |
| NAA10 (GeneID 8260) | 1 | 4.94 | 37.7 | 21.7 | inactive |
| NAA10 (GeneID 8260) | 2 | 7.39 | 55 | 24.4 | active |
| NAA10 (GeneID 8260) | 3 | 0.804 | 8.62 | 8.29 | inactive |
| BAG2 (GeneID 9532) | 1 | -0.616 | -1.37 | 3.07 | inactive |
| BAG2 (GeneID 9532) | 2 | 2.49 | 20.5 | 15.1 | inactive |
| BAG2 (GeneID 9532) | 3 | -0.61 | -1.32 | 2.79 | inactive |
| EXOC4 (GeneID 60412) | 1 | 0.846 | 8.92 | 8.46 | inactive |
| EXOC4 (GeneID 60412) | 2 | 0.126 | 3.85 | 6.34 | inactive |
| EXOC4 (GeneID 60412) | 3 | -0.333 | 0.622 | 2.86 | inactive |
| DELE1 (GeneID 9812) | 1 | 1.15 | 11.1 | 10.3 | inactive |
| DELE1 (GeneID 9812) | 2 | 3.18 | 25.3 | 14.5 | inactive |
| DELE1 (GeneID 9812) | 3 | 0.0861 | 3.57 | 4.71 | inactive |
| LINC01376 (GeneID 400945) | 1 | 4.22 | 32.7 | 15.7 | inactive |
| LINC01376 (GeneID 400945) | 2 | -0.0263 | 2.78 | 4.62 | inactive |
| LINC01376 (GeneID 400945) | 3 | -0.341 | 0.57 | 5.03 | inactive |
| BMS1P15 (GeneID 642311) | 1 | 0.0169 | 3.09 | 4.93 | inactive |
| BMS1P15 (GeneID 642311) | 2 | 0.0586 | 3.38 | 4.86 | inactive |
| BMS1P15 (GeneID 642311) | 3 | 0.407 | 5.83 | 7.21 | inactive |
| SRSF11 (GeneID 9295) | 1 | -0.709 | -2.02 | 4.42 | inactive |
| SRSF11 (GeneID 9295) | 2 | -0.532 | -0.779 | 3.62 | inactive |
| SRSF11 (GeneID 9295) | 3 | -1.05 | -4.45 | 1.79 | inactive |

A portion taken from the entries so far, for reference:
| Gene | reagent no. | G2 robust z-score | G2 cells, % of GMNN control | raw share of cells in G2 (%) | Call |
| --- | --- | --- | --- | --- | --- |
| BAG2 (GeneID 9532) | 1 | -0.616 | -1.37 | 3.07 | inactive |
| BAG2 (GeneID 9532) | 2 | 2.49 | 20.5 | 15.1 | inactive |
| BAG2 (GeneID 9532) | 3 | -0.61 | -1.32 | 2.79 | inactive |
| EXOC4 (GeneID 60412) | 1 | 0.846 | 8.92 | 8.46 | inactive |
| EXOC4 (GeneID 60412) | 2 | 0.126 | 3.85 | 6.34 | inactive |
